# Reference: patent publication US9408922B2, “Anti-tofacitinib antibodies and uses thereof for drug monitoring” (Pfizer Inc., priority 2012, dated 2016)
# Assay: Standard curve with tofacitinib, ELISA (Example 10)
# Assay type: binding
# Settings: Biotinylated Tofacitinib 1 ng/mL; antibody dilution 4,000 (6D9.A8), 22,000 (12D4.G6)
# Description: FIG. 4 is a graph depicting optimal dilution ranges of select monoclonal antibodies of the invention, e.g., 6D9.A8 (open circles) and 12D4.G6 (open squares) as determined by ELISA.
molecule,measurement,value
"12D4.G6: mouse monoclonal anti-tofacitinib antibody; VH SEQ ID NO:12, VL SEQ ID NO:4 (antibody, listed as Mus musculus, V domains shown) VH: QVQLKESGPGLVAPSQSLSITCTVSGFSLSIYSVHWVRQPPGKGLEWLGMIWGGGNTDYNSVLKSRLSISKDNSKSQVFLKVNSLQTDDTAMYYCARIYYGIFWGQGTLVTVSA VL: NIVMTQSPKSMSMSVGERVTLTCKASENVVTYVSWYQQKPEQSPKLLIYGASNRYTGVPDRFTGSGSATDFTLTISSVQAEDLADYHCGQGYSYPYTFGGGTKLEIKR",Standard Range,5 to 405 ng/mL
